Experimental data reported in the supplement of paper PMC6078165.
The reference is the same well before dosing, and untreated signal decays as well.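 Labels refer to human fibroblasts, largely primary: uterine (C12385, HUF), lung (H6013), bone (Hs27A), adrenal (HADF), skin (WS1), plus mammary HMF and breast cancer-associated Hs343T. Cancer lines are basal-like or mesenchymal-like triple-negative breast cancer. The paper counts as hits responses shifting over 3x the replicate standard deviation. The tissue of the other fibroblasts is not given here.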

System: Hs578T
Assay: relative JC-1 red fluorescence (viability) vs pre-drug, coculture with fibroblast (fraction); higher = more viable cancer cells
Protocol: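 JC-1 labelled TNBC cells cocultured 1:1 (1,500 cells each) with CellTrace Violet stained primary or stromal fibroblasts in 384-well plates in FluoroBrite medium, treated with one of 42 anticancer drugs at 0.1, 1, 10 or 100 uM. JC-1 red fluorescence (mitochondrial integrity in cancer cells only) was read by plate reader every 8 h for 72 h. Values are normalised to each well's pre-drug value. The stock of one drug was tenfold lower, so its dose labels may be too high.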

Nc1ncn([C@@H]2O[C@H](CO)[C@@H](O)[C@H]2O)c(=O)n1 [Azacitidine]
relative JC-1 red fluorescence
Conditions | 8 h | 16 h | 24 h | 32 h | 40 h | 48 h | 56 h | 64 h | 72 h
0.1 µM | 0.8664 | 0.791 | 0.752 | 0.715 | 0.659 | 0.625 | 0.601 | 0.567 | 0.56
1 µM | 0.902 | 0.814 | 0.785 | 0.757 | 0.703 | 0.6574 | 0.63 | 0.582 | 0.557

relative JC-1 red fluorescence
Conditions | 8 h | 16 h | 24 h | 32 h | 40 h | 48 h | 56 h | 64 h | 72 h
0.1 µM, coculture fibroblast: C12385 | 0.8061 | 0.7404 | 0.74 | 0.636 | 0.582 | 0.568 | 0.554 | 0.565 | 0.571
0.1 µM, coculture fibroblast: H6013 | 0.837 | 0.8134 | 0.7938 | 0.7843 | 0.77989 | 0.788 | 0.791 | 0.804 | 0.794
0.1 µM, coculture fibroblast: H6019 | 0.7772 | 0.723 | 0.713 | 0.607 | 0.573 | 0.552 | 0.523 | 0.514 | 0.498
0.1 µM, coculture fibroblast: H6076 | 0.88 | 0.818 | 0.78 | 0.768 | 0.735 | 0.742 | 0.73 | 0.731 | 0.7298
0.1 µM, coculture fibroblast: H6231 | 0.8524 | 0.792 | 0.745 | 0.701 | 0.642 | 0.619 | 0.584 | 0.579 | 0.582
0.1 µM, coculture fibroblast: HADF | 0.88 | 0.837 | 0.795 | 0.761 | 0.748 | 0.741 | 0.737 | 0.759 | 0.747
0.1 µM, coculture fibroblast: HCFa | 0.859 | 0.827 | 0.8 | 0.766 | 0.73 | 0.721 | 0.714 | 0.713 | 0.689
0.1 µM, coculture fibroblast: HCPF | 0.886 | 0.788 | 0.7498 | 0.7282 | 0.685 | 0.668 | 0.6596 | 0.634 | 0.618
0.1 µM, coculture fibroblast: HHSteC | 0.862 | 0.808 | 0.763 | 0.717 | 0.687 | 0.666 | 0.663 | 0.644 | 0.631
0.1 µM, coculture fibroblast: HMF | 0.811 | 0.725 | 0.6798 | 0.667 | 0.621 | 0.607 | 0.589 | 0.58 | 0.585
0.1 µM, coculture fibroblast: HPFa | 0.891 | 0.863 | 0.839 | 0.81 | 0.8 | 0.797 | 0.778 | 0.768 | 0.743
0.1 µM, coculture fibroblast: HUF | 0.804 | 0.6919 | 0.661 | 0.553 | 0.494 | 0.465 | 0.44 | 0.443 | 0.443
0.1 µM, coculture fibroblast: Hs27A | 0.892 | 0.877 | 0.848 | 0.82 | 0.778 | 0.784 | 0.761 | 0.769 | 0.741
0.1 µM, coculture fibroblast: Hs343T | 0.836 | 0.723 | 0.67 | 0.651 | 0.585 | 0.564 | 0.543 | 0.532 | 0.545
0.1 µM, coculture fibroblast: WS1 | 0.7766 | 0.7016 | 0.701 | 0.609 | 0.557 | 0.55 | 0.53 | 0.545 | 0.552
1 µM, coculture fibroblast: C12385 | 0.81917 | 0.717 | 0.68 | 0.586 | 0.52 | 0.484 | 0.452 | 0.441 | 0.438
1 µM, coculture fibroblast: H6013 | 0.851 | 0.79 | 0.735 | 0.702 | 0.654 | 0.641 | 0.616 | 0.609 | 0.581
1 µM, coculture fibroblast: H6019 | 0.756 | 0.655 | 0.622 | 0.515 | 0.466 | 0.434 | 0.402 | 0.378 | 0.347
1 µM, coculture fibroblast: H6076 | 0.878 | 0.816 | 0.779 | 0.749 | 0.706 | 0.697 | 0.678 | 0.672 | 0.665
1 µM, coculture fibroblast: H6231 | 0.91 | 0.8099 | 0.734 | 0.675 | 0.60729 | 0.5641 | 0.5132 | 0.4787 | 0.4627
1 µM, coculture fibroblast: HADF | 0.867 | 0.759 | 0.697 | 0.648 | 0.611 | 0.579 | 0.552 | 0.542 | 0.513
1 µM, coculture fibroblast: HCFa | 0.819 | 0.763 | 0.715 | 0.672 | 0.615 | 0.587 | 0.552 | 0.532 | 0.491
1 µM, coculture fibroblast: HCPF | 0.9284 | 0.821 | 0.747 | 0.694 | 0.644 | 0.619 | 0.6 | 0.561 | 0.539
1 µM, coculture fibroblast: HHSteC | 0.8624 | 0.7643 | 0.712 | 0.669 | 0.621 | 0.595 | 0.568 | 0.54 | 0.503
1 µM, coculture fibroblast: HMF | 0.8562 | 0.794 | 0.767 | 0.755 | 0.718 | 0.706 | 0.684 | 0.67 | 0.671
1 µM, coculture fibroblast: HPFa | 0.932 | 0.862 | 0.808 | 0.769 | 0.73 | 0.694 | 0.642 | 0.6 | 0.552
1 µM, coculture fibroblast: HUF | 0.869 | 0.733 | 0.731 | 0.627 | 0.571 | 0.539 | 0.505 | 0.5 | 0.502
1 µM, coculture fibroblast: Hs27A | 0.8721 | 0.809 | 0.779 | 0.738 | 0.676 | 0.665 | 0.623 | 0.606 | 0.562
1 µM, coculture fibroblast: Hs343T | 0.871 | 0.768 | 0.71 | 0.693 | 0.632 | 0.608 | 0.584 | 0.564 | 0.57
1 µM, coculture fibroblast: WS1 | 0.766 | 0.6797 | 0.6502 | 0.574 | 0.5203 | 0.508 | 0.481 | 0.472 | 0.464
